Laboratory results reported in patent US7943319B2, “Utility of RET mutant in diagnosis and treatment of melanoma” (John Wayne Cancer Institute, priority 2007, dated 2011).
For at least one compound, name, drawing or mass did not settle the structure.

Experiments:
ME7 cells (RETmt/BRAFwt) = experiment: Blocking assay of GDNF-induced proliferation; format: cell-based, human; details: pre-treated 60 min with 10 μM PD98059 or 100 nM wortmannin, then 25 ng/ml GDNF for 72 hrs
Description: Cell proliferation 48 and 72 hrs after GDNF treatment (5, 25 or 50 ng/ml, dissolved in water) in serum-free medium was analyzed by 3-(4,5-dimethylthiazol-2-yl)-2,5-diphenyltetrazolium bromide (MTT) and direct cell counting with a light microscope, respectively. MTT (0.4 mg/ml, Sigma-Aldrich, St. Louis, Mo.) was added into culture wells after washing with PBS. The converted dye was dissolved with DMSO 2 hrs after incubation at 37° C. and the absorbance was measured at a wavelength of 550 nm with a microplate reader (Bio-Rad). For cell counting, cells were harvested after washing with PBS and the number of cells was counted using a hemocytometer under a microscope. In blocking assays, cells were pre-treated with 10 μM of a MEK1 inhibitor, PD98059 (Cell Signaling Technology), or 100 nM of a PI3K inhibitor, wortmannin (Cell Signaling Technology), for 60 min before treatment of GDNF as indicated in the instructions from the company, and followed by 25 ng/ml of GDNF treatment for 72 hrs. To avoid the effect of the delivery agent on cells, PD98059 and wortmannin were dissolved in PBS, and the same amount of PBS was added to control (GDNF(−)) and GDNF-treated cells.

ME5 cells (RETmt/BRAFwt) = experiment: Blocking assay of GDNF-induced migration; format: cell-based, human; details: wortmannin 100 nM pre-treatment 60 min, 25 ng/ml GDNF 48 hrs

## COC[C@H]1OC(=O)c2coc3c2[C@@]1(C)C1=C(C3=O)[C@@H]2CCC(=O)[C@@]2(C)C[C@H]1OC(C)=O [Wortmannin, wortmannin]
ME7 cells (RETmt/BRAFwt)
  suppression of GDNF-induced proliferation: partially suppressed
ME7 cells (RETmt/BRAFwt); listed as wortmannin
  suppression of GDNF-induced proliferation: to some extent
ME5 cells (RETmt/BRAFwt)
  suppression of migration induced by GDNF: strongly suppressed
